In paper PMC2169300:
The exact form of at least one protein or probe is not confirmed. The comparison behind a weaker result is the experiment's own reference, which may not be listed here.

Sequences of proteins named here, by UniProt entry; tags and fusion partners are left off.
UniProt Q60749, whole entry: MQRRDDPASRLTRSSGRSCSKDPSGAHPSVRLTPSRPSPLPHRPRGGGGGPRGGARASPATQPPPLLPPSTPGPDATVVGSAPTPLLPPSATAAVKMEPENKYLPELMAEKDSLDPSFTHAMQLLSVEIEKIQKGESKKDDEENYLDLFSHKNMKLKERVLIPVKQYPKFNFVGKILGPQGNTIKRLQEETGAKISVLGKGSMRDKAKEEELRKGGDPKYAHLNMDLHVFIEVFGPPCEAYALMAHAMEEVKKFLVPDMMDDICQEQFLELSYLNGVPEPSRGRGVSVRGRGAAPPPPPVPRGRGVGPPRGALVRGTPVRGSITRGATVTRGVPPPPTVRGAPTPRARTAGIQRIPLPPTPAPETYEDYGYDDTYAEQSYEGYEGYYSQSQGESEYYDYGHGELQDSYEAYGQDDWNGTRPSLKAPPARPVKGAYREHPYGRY

Target: His-Sam68, ERK-phosphorylated (mouse) (UniProt Q60749)
Assay: EMSA
Conditions: ERK-thiophosphorylated, pH and temperature not given, recombinant protein, protein details: His (pQE-32)

| Sequence | binding result (25 and 50 ng protein) | binding result (175 and 250 ng protein) |
| --- | --- | --- |
| AUAGACAGAAUCAGCACCAGUGCUCAUGGAGAAAAUUGGACC [CD44 v5 exonic Sam68 site RNA] | binds more weakly |  |
| GAAGAAGAGGAUUAUUAAAGACUAUUUGAUUAGA [CD44 intronic Sam68 site RNA (wt)] |  | binds more weakly |
